Test results published in PubChem BioAssay AID2662 (National Center for Advancing Translational Sciences (NCATS), 2010).
Among all 290,000 compounds or so, about 110 (0.038%) were called active. Inconclusive results, whose numbers are uncertain, are shown with a selection of clear calls. Calls follow the shape of the dose curve; as a rule, active = well fitted inhibition curve with a large enough effect in the polarisation, with a control signal flat (not every such curve was filed as active); inconclusive = small, poorly fitted or top-dose-only effect, or effect the other way, or a change in a side signal; inactive = no such curve, though single readings can be large or run the other way; the % refers to the polarisation. Where the call is inconclusive, the potency comes from a doubtful curve fit. A note “side channel” means that the fit belongs to a control or component signal, not to the main read-out.

Sequences of proteins named here, by UniProt entry; tags and fusion partners are left off.
UniProt Q03164, whole entry, looked up: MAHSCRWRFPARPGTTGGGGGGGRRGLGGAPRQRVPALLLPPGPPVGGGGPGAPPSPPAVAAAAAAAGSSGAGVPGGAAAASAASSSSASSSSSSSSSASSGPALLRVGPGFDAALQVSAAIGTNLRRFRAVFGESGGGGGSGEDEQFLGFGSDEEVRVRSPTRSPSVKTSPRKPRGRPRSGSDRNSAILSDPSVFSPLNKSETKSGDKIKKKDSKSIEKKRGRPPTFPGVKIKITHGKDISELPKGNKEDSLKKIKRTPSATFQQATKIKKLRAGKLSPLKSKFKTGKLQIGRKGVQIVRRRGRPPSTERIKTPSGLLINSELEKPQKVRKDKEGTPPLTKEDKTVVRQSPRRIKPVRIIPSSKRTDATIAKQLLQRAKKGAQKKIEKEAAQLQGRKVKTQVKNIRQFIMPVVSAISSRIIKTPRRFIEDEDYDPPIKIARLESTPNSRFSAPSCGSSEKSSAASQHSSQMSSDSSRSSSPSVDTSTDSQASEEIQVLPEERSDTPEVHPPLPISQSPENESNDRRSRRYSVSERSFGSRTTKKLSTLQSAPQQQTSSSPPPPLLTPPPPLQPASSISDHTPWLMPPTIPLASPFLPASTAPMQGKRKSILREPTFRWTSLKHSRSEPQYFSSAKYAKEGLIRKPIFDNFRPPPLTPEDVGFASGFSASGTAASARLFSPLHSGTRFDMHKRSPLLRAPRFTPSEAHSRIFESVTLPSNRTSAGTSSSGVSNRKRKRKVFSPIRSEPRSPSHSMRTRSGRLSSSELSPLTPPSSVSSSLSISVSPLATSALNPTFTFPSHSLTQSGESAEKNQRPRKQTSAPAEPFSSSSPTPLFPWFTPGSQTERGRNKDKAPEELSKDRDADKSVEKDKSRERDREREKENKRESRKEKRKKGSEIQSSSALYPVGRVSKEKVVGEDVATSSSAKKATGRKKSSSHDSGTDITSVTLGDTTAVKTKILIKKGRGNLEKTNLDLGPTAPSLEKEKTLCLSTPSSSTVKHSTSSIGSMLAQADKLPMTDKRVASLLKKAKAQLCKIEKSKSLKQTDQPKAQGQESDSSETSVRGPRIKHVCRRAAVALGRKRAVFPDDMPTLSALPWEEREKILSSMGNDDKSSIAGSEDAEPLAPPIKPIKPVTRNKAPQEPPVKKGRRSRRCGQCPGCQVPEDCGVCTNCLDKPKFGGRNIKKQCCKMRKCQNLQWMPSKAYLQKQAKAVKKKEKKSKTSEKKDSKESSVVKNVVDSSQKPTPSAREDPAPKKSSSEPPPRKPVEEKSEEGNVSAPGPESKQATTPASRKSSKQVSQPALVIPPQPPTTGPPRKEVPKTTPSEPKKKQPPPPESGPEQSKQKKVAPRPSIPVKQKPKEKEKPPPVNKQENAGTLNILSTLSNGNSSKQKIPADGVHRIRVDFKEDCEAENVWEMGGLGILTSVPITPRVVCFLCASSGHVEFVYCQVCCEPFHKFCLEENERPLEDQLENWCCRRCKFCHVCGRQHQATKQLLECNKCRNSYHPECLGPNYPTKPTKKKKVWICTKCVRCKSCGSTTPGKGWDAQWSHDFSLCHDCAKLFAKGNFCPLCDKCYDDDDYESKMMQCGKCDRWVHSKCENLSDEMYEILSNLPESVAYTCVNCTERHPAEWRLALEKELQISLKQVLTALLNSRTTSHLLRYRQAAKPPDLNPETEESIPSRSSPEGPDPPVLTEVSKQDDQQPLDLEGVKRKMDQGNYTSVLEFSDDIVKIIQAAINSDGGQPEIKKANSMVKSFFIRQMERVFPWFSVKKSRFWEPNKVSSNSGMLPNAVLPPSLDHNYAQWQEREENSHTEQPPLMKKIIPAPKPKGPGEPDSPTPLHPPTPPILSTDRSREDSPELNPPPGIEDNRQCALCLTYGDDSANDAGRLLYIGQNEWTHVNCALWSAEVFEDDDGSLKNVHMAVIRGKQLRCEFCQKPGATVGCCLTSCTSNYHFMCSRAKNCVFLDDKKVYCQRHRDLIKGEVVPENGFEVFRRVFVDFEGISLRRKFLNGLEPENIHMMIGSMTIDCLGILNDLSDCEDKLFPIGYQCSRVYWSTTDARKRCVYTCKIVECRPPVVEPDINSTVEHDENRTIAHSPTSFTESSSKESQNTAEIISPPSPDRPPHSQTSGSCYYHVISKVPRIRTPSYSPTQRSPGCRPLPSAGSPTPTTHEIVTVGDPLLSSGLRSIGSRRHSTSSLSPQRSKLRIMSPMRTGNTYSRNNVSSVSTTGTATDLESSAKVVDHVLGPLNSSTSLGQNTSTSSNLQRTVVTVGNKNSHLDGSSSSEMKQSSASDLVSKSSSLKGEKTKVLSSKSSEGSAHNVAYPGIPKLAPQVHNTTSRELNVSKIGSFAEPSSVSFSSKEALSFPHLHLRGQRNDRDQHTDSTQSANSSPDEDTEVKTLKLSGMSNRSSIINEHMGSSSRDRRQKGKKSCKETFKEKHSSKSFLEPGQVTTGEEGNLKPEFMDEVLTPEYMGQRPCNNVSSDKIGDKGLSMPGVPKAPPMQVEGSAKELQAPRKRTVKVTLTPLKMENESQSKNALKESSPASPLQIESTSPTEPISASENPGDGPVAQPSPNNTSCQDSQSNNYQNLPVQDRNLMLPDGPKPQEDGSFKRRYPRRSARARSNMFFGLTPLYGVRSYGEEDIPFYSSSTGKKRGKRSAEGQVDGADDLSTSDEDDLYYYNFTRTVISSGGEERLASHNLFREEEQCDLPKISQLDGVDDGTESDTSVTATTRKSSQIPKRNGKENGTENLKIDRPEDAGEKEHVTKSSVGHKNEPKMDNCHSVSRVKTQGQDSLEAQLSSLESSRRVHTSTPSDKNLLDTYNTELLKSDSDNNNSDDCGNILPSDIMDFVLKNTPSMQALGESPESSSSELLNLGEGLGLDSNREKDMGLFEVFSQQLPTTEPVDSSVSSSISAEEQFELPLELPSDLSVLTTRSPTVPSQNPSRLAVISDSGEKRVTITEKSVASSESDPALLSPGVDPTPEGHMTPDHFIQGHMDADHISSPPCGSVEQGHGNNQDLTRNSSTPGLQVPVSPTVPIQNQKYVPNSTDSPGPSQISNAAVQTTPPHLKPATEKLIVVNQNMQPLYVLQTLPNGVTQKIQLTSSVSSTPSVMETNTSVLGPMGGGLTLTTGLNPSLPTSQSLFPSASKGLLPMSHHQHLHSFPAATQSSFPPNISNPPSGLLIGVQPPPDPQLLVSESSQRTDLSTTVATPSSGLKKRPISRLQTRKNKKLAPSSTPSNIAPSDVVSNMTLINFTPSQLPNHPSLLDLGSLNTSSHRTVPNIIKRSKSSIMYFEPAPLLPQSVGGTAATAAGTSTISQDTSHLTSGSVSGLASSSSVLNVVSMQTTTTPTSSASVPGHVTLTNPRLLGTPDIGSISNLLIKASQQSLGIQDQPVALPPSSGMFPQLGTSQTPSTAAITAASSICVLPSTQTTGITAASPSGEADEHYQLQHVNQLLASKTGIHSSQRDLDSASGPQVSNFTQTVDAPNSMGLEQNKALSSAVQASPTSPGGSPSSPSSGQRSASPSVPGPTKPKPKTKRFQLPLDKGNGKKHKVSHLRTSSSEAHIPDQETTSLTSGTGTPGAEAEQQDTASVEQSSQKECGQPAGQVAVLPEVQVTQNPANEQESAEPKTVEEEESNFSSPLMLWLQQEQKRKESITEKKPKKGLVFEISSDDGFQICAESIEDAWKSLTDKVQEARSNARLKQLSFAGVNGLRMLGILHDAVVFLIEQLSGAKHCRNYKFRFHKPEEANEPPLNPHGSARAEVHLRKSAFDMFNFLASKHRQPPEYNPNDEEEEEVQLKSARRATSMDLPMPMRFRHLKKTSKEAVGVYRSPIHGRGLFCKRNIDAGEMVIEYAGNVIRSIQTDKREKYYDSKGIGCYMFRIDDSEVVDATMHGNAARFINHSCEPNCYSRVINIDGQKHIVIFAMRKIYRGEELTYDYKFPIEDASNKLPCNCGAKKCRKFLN

Target: Histone-lysine N-methyltransferase 2A (Homo sapiens) (UniProt Q03164)
Test: qHTS Fluorescence Polarization Assay for Inhibitors of MLL CXXC domain - DNA interaction
Conditions: MLL-CXXC / FITC-HOXA9 DNA fluorescence polarization; activity change, negative = inhibition: at 115 µM (top of the series)
Procedure, shortened: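 Fluorescence polarization: 7 uM MLL-CXXC (stock) preincubated 5 min with compounds, then 50 nM fluorescein-HOX-A9 DNA (stock) added; 30 min ambient. Buffer 50 mM Tris-HCl pH 7.5, 50 mM NaCl, 1 mM DTT, 0.05% BSA.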
Potency is read from the fitted curve at half-maximal effect.

| SMILES | activity change, negative = inhibition | Potency |
| --- | --- | --- |
| CCc1ccc(N2C(=O)NC(=O)/C(=C\c3cc(C)n(-c4cc(C(=O)O)cc(C(=O)O)c4)c3C)C2=O)cc1 | inactive: -8.33% | – |
| COc1ccc2c(c1OC)CN1CCc3cc4c(cc3[C@H]1C2)OCO4 | inactive: 5.82% [at 51.4 µM] | – |
| CN1CCN(c2nc(N)c(Br)c(Cl)n2)CC1 | – | inconclusive: 6.31 µM [fluorescent, side channel, single point] |
| N#CC(C#N)=Cc1cccnc1 | – | inconclusive: 35.5 µM [inhibitor, single point] |
| O=C(c1ccc(Cl)cc1)C1CCCN(Cc2cccc3cccnc23)C1 (stereo not drawn) | – | inconclusive: 15.8 µM [inhibitor, single point] |
| Fc1ccc(Cn2nnnc2CN2CCC(n3nnc4cc(C(F)(F)F)ccc43)CC2)cc1 | inactive: 18.1% | – |
| CN1C(=O)C(=Cc2ccccc2Oc2ccc(Cl)cc2)C(=O)N(C)C1=O | – | inconclusive: 35.5 µM [inhibitor, partial curve] |
| CN(C)c1ccc(C=C2C(=O)NC(=S)NC2=O)cc1[N+](=O)[O-] | – | inconclusive: 8.91 µM [inhibitor, full curve] |
| Cc1ccc(S(=O)(=O)n2[nH]c(=O)cc2NC(=O)c2cccs2)cc1 | – | inconclusive: 89.1 µM [inhibitor, single point] |
| NCCc1ccc(O)cc1 | – | inconclusive: 0.398 µM [inhibitor, full curve, poor fit] |
| O=c1[nH]c(=S)n(-c2ccccc2F)c(O)c1C=Nc1ccc(N2CCOCC2)cc1 | – | inconclusive: 35.5 µM [fluorescent, side channel, partial curve] |
| COC(=O)[C@@]1(C#N)[C@@H]2C=CC(C(C)=O)=CN2[C@@H](C(N)=O)[C@@H]1c1ccc(F)cc1 | – | inconclusive: 39.8 µM [fluorescent, side channel, single point] |
| O=c1c2ccccc2nc(CSc2ncnc3nc[nH]c23)n1-c1ccccc1 | inactive: 3.79% | – |
| Cc1cc(C)c(Cn2c(C(=O)O)c(C=O)c3ccccc32)c(C)c1 | – | inconclusive: 35.5 µM [fluorescent, side channel, single point] |
| CC[C@@H](CO)NC(=O)[C@H]1C=C2c3cccc4c3c(cn4C)C[C@H]2N(C)C1 | – | inconclusive: 39.8 µM [inhibitor, single point] |
| COc1ccc(CCN2CCCC(CN(C)C(=O)c3cc(C)oc3C)C2)cc1 (stereo not drawn) | – | inconclusive: 20 µM [quencher, side channel, partial curve] |
| O=C1NC(=O)N(c2ccccc2F)C(=O)/C1=C/c1ccc(Sc2nc3ccccc3[nH]2)o1 | inactive: 33.8% | – |
| O=C1NC(=O)N(c2ccc3c(c2)OCO3)C(=O)/C1=C/c1ccc(N2CCCC2)o1 | – | inconclusive: 39.8 µM [fluorescent, partial curve] |

Record cards, as listed above. Values in the order: activity change, negative = inhibition | Potency
N#CC(C#N)=Cc1cccnc1 in the list: – | inconclusive: 35.5 µM [inhibitor, single point]
Cc1cc(C)c(Cn2c(C(=O)O)c(C=O)c3ccccc32)c(C)c1 in the list: – | inconclusive: 35.5 µM [fluorescent, side channel, single point]
